Experimental data: PubChem BioAssay AID602 (SRMLSC, 2007)
Some of the results follow.

Assay: MRP1 drug-resistance reversers in H69AR cells – cell-based, doxorubicin co-treatment, primary screen (AID 602)
Conditions: H69AR cells + 2 uM doxorubicin, CellTiter-Glo, 72 h; measured here: viability with 2 uM doxorubicin; at 10 µM; stronger effect = lower value

Row | SMILES | viability
1 | c1ccc(CN2CCC(Nc3ccccc3)CC2)cc1 | 80%
2 | N/C(=N\O)c1c(N)no[n+]1[O-] | 98.8%
3 | CCC(CO)(C(=O)OC1CN2CCC1CC2)c1ccccc1 (centres undefined) | 99.9%
4 | CCOc1ncccc1C(=O)NCC1(N2CCOCC2)CCCCC1 | 89.6%
5 | Fc1ccccc1NC1CCN(Cc2ccccc2)CC1 | 91.8%
6 | O=C(OC1CN2CCC1CC2)C1c2ccccc2Oc2ccccc21 (centres undefined) | 75.3%
7 | O=C(NCC1(N2CCOCC2)CCCCC1)c1cc2ccccc2o1 | 86%
8 | O=C(NCC1(N2CCOCC2)CCCCC1)c1cc(=O)[nH]c2ccccc12 | 95.4%
9 | N#CC1(Nc2ccccc2)CCN(CCc2ccccc2)CC1 | 89%
